No constants are given. Whether binding was seen depends on the method and setting. In cells and extracts the contact can be indirect. Binding can be weak; no strength is given.
Experiments:
[1] = target: atx_mdc-6e (Crotalus atrox); test: whole C. atrox venom on FETUA-3 affinity column, total eluate, LC-MS/MS; protein identification probability 99.90%
[2] = target: atx_mdc-3a (Crotalus atrox); test: whole C. atrox venom on FETUA-3 affinity column, total eluate, LC-MS/MS; protein identification probability 99.20%
[3] = target: atx_mad-1b (Crotalus atrox); test: whole C. atrox venom on FETUA-3 affinity column, total eluate, LC-MS/MS; protein identification probability 97.90%
[4] = target: atx_mdc-8c (Crotalus atrox); test: whole C. atrox venom on FETUA-3 affinity column, gel-excised upper band of eluate, LC-MS/MS; protein identification probability 100%
[5] = target: MPO-1 (Crotalus atrox); test: as above
[6] = target: atx_mdc-6d (Crotalus atrox); test: as above
[7] = target: atx_mdc-5a (Crotalus atrox); test: as above
[8] = target: atx_mdc-7 (Crotalus atrox); test: as above
[9] = target: atx_mdc-5b (Crotalus atrox); test: as above
[10] = target: atx_mpf-1a (Crotalus atrox); test: whole C. atrox venom on FETUA-3 affinity column, gel-excised upper band of eluate, LC-MS/MS; protein identification probability 98%
[11] = target: atx_mdc-3a (Crotalus atrox); test: as above
[12] = target: atx_mad-3b (Crotalus atrox); test: as above
[13] = target: MPO-1 (Crotalus atrox); test: whole C. atrox venom on FETUA-3 affinity column, gel-excised lower band of eluate, LC-MS/MS; protein identification probability 100.00%
[14] = target: atx_mad-3a (Crotalus atrox); test: as above
[15] = target: atx_mad-3b (Crotalus atrox); test: as above
[16] = target: atx_mad-5a (Crotalus atrox); test: as above
[17] = target: atx_mad-5a (Crotalus atrox); test: whole C. atrox venom on FETUA-3 affinity column, gel-excised upper band of eluate, LC-MS/MS; protein identification probability 99%
[18] = target: atx_mpf-1a (Crotalus atrox); test: whole C. atrox venom on FETUA-3 affinity column, total eluate, LC-MS/MS; protein identification probability 100.00%
[19] = target: atx_mdc-8c (Crotalus atrox); test: as above
[20] = target: MPO-1 (Crotalus atrox); test: as above
[21] = target: atx_mad-3a (Crotalus atrox); test: as above
[22] = target: atx_mdc-6d (Crotalus atrox); test: as above
[23] = target: atx_mdc-5a (Crotalus atrox); test: as above
[24] = target: atx_mad-3b (Crotalus atrox); test: as above
[25] = target: atx_mad-4b (Crotalus atrox); test: as above
[26] = target: atx_mdc-7 (Crotalus atrox); test: as above
[27] = target: atx_mad-4a (Crotalus atrox); test: as above
[28] = target: atx_mdc-5b (Crotalus atrox); test: as above
[29] = target: atx_mdc-6b (Crotalus atrox); test: as above
[30] = target: atx_mdc-6c (Crotalus atrox); test: as above
[31] = target: atx_mdc-8b (Crotalus atrox); test: as above
[32] = target: atx_mad-5a (Crotalus atrox); test: as above

Measured: binding

B1: C. atrox FETUA-3 with Habu residues 317-322 (protein)
chain: FQLAGNMDCNTKGTKDWADIGVRYINEHKLHGYKQALNIIKIFRLLPSDGRSVIFHFKLNLLETECHVLDPTPLENCTVRQQNNHAVEMDCNVRIIHDIATFEDEVFVKCNSTPDSVENVRRNCPKCPILLPPNDPHVIDSVEYVLNKHNEKLSGHIYEVLEISRGQHKYEPEAFYVEFAIVEVNCTAEEAHDDHHDCHPNTDGENHIGFCRATVFRSHASLEKPKEEMFESDCVILHVKKGHAYSHLIEHHVGKYNTSPGRNSTDECVVQCPVAFVNKEVPKDISDHDTPPVEGCPGKVHHFKL
modifications: covalently coupled to NHS-Trap HP agarose in the affinity experiment
binds: [1] | [2] | [3] | [4] | [5] | [6] | [7] | [8] | [9] | [10] | [11] | [12] | [13] | [14] | [15] | [16] | [17] | [18] | [19] | [20] | [21] | [22] | [23] | [24] | [25] | [26] | [27] | [28] | [29] | [30] | [31] | [32]

Source: US20240190923A1
